From PubChem BioAssay AID188 (DTP/NCI, 2004)
The mice bore no tumour; each value counts animals alive of those treated. Counts of survivors are from the toxicity check (mostly the fifth day) where no day follows; animals may have died later. Schedule codes are those of the source, read here as Q, the interval in days (D) or hours (H), X, the number of doses.

System: CD2F1 mice, nontumored, toxicity/survival
Assay: NCI In Vivo Anticancer Drug Screen. Data for tumor model Nontumored Animals (Toxicity Test) in CD2F1 (CDF1) mice

## Nc1nc([Se])c2ncn(C3OC(CO)C(O)C3O)c2n1 (configuration not stated)
dose: 0.25 mg/kg/injection, schedule: Q03HX024 (ip), vehicle: DMSO
  survivor count: 8 of 8
dose: 0.5 mg/kg/injection, schedule: Q03HX016 (ip), vehicle: DMSO
  survivor count: 8 of 8
dose: 0.5 mg/kg/injection, schedule: Q03HX024 (ip), vehicle: DMSO
  survivor count: 8 of 8
dose: 1.0 mg/kg/injection, schedule: Q01DX009 (ip), vehicle: DMSO
  survivor count: 8 of 8
dose: 1.0 mg/kg/injection, schedule: Q01DX009 (sc), vehicle: DMSO
  survivor count: 8 of 8
dose: 1.0 mg/kg/injection, schedule: Q03HX008 (ip), vehicle: DMSO
  survivor count: 8 of 8
dose: 1.0 mg/kg/injection, schedule: Q03HX016 (ip), vehicle: DMSO
  survivor count: 8 of 8
dose: 1.0 mg/kg/injection, schedule: Q03HX024 (ip), vehicle: DMSO
  survivor count: 8 of 8
dose: 2.0 mg/kg/injection, schedule: Q01DX009 (ip), vehicle: DMSO
  survivor count: 8 of 8
dose: 2.0 mg/kg/injection, schedule: Q01DX009 (sc), vehicle: DMSO
  survivor count: 8 of 8
dose: 2.0 mg/kg/injection, schedule: Q03HX008 (ip), vehicle: DMSO
  survivor count: 8 of 8
dose: 2.0 mg/kg/injection, schedule: Q03HX016 (ip), vehicle: DMSO
  survivor count: 8 of 8
dose: 2.0 mg/kg/injection, schedule: Q03HX024 (ip), vehicle: DMSO
  survivor count: 8 of 8
dose: 2.0 mg/kg/injection, schedule: Q04DX003 (ip), vehicle: DMSO
  survivor count: 8 of 8
dose: 2.0 mg/kg/injection, schedule: Q04DX003 (ip), vehicle: clinical formulation
  survivor count: 4 of 4
dose: 2.0 mg/kg/injection, schedule: Q04DX003 (ip), vehicle: saline
  survivor count: 4 of 4
dose: 4.0 mg/kg/injection, schedule: Q01DX009 (ip), vehicle: DMSO
  survivor count: 8 of 8
dose: 4.0 mg/kg/injection, schedule: Q01DX009 (oral), vehicle: DMSO
  survivor count: 8 of 8
dose: 4.0 mg/kg/injection, schedule: Q01DX009 (sc), vehicle: DMSO
  survivor count: 8 of 8
dose: 4.0 mg/kg/injection, schedule: Q03HX008 (ip), vehicle: DMSO
  survivor count: 8 of 8
dose: 4.0 mg/kg/injection, schedule: Q03HX016 (ip), vehicle: DMSO
  survivor count: 8 of 8
dose: 4.0 mg/kg/injection, schedule: Q03HX024 (ip), vehicle: DMSO
  survivor count: 8 of 8
dose: 4.0 mg/kg/injection, schedule: Q04DX003 (ip), vehicle: DMSO
  survivor count: 8 of 8
dose: 4.0 mg/kg/injection, schedule: Q04DX003 (ip), vehicle: clinical formulation
  survivor count: 4 of 4
dose: 4.0 mg/kg/injection, schedule: Q04DX003 (ip), vehicle: saline
  survivor count: 4 of 4
dose: 4.0 mg/kg/injection, schedule: Q08DX002 (ip), vehicle: DMSO
  survivor count: 8 of 8
dose: 8.0 mg/kg/injection, schedule: Q01DX001 (ip), vehicle: DMSO
  survivor count: 8 of 8
dose: 8.0 mg/kg/injection, schedule: Q01DX001 (sc), vehicle: DMSO
  survivor count: 8 of 8
dose: 8.0 mg/kg/injection, schedule: Q01DX009 (ip), vehicle: DMSO
  survivor count: 8 of 8
dose: 8.0 mg/kg/injection, schedule: Q01DX009 (oral), vehicle: DMSO
  survivor count: 8 of 8
dose: 8.0 mg/kg/injection, schedule: Q01DX009 (sc), vehicle: DMSO
  survivor count: 8 of 8
dose: 8.0 mg/kg/injection, schedule: Q03HX008 (ip), vehicle: DMSO
  survivor count: 8 of 8
dose: 8.0 mg/kg/injection, schedule: Q03HX016 (ip), vehicle: DMSO
  survivor count: 8 of 8
dose: 8.0 mg/kg/injection, schedule: Q03HX024 (ip), vehicle: DMSO
  survivor count: 8 of 8
dose: 8.0 mg/kg/injection, schedule: Q04DX003 (ip), vehicle: DMSO
  survivor count: 8 of 8
dose: 8.0 mg/kg/injection, schedule: Q04DX003 (ip), vehicle: clinical formulation
  survivor count: 4 of 4
dose: 8.0 mg/kg/injection, schedule: Q04DX003 (ip), vehicle: saline
  survivor count: 4 of 4
dose: 8.0 mg/kg/injection, schedule: Q08DX002 (ip), vehicle: DMSO
  survivor count: 8 of 8
dose: 16.0 mg/kg/injection, schedule: Q01DX001 (ip), vehicle: DMSO
  survivor count: 8 of 8
dose: 16.0 mg/kg/injection, schedule: Q01DX001 (oral), vehicle: DMSO
  survivor count: 8 of 8
dose: 16.0 mg/kg/injection, schedule: Q01DX001 (sc), vehicle: DMSO
  survivor count: 8 of 8
dose: 16.0 mg/kg/injection, schedule: Q01DX009 (ip), vehicle: DMSO
  survivor count: 8 of 8
dose: 16.0 mg/kg/injection, schedule: Q01DX009 (oral), vehicle: DMSO
  survivor count: 8 of 8
dose: 16.0 mg/kg/injection, schedule: Q01DX009 (sc), vehicle: DMSO
  survivor count: 8 of 8
dose: 16.0 mg/kg/injection, schedule: Q03HX008 (ip), vehicle: DMSO
  survivor count: 4 of 8
dose: 16.0 mg/kg/injection, schedule: Q03HX016 (ip), vehicle: DMSO
  survivor count: 4 of 8
dose: 16.0 mg/kg/injection, schedule: Q03HX024 (ip), vehicle: DMSO
  survivor count: 0 of 8
dose: 16.0 mg/kg/injection, schedule: Q04DX003 (ip), vehicle: DMSO
  survivor count: 8 of 8
dose: 16.0 mg/kg/injection, schedule: Q04DX003 (ip), vehicle: clinical formulation
  survivor count: 4 of 4
dose: 16.0 mg/kg/injection, schedule: Q04DX003 (ip), vehicle: saline
  survivor count: 4 of 4
dose: 16.0 mg/kg/injection, schedule: Q08DX002 (ip), vehicle: DMSO
  survivor count: 8 of 8
dose: 32.0 mg/kg/injection, schedule: Q01DX001 (ip), vehicle: DMSO
  survivor count: 8 of 8
dose: 32.0 mg/kg/injection, schedule: Q01DX001 (oral), vehicle: DMSO
  survivor count: 8 of 8
dose: 32.0 mg/kg/injection, schedule: Q01DX001 (sc), vehicle: DMSO
  survivor count: 7 of 8
dose: 32.0 mg/kg/injection, schedule: Q01DX009 (ip), vehicle: DMSO
  survivor count: 8 of 8
dose: 32.0 mg/kg/injection, schedule: Q01DX009 (oral), vehicle: DMSO
  survivor count: 8 of 8
dose: 32.0 mg/kg/injection, schedule: Q01DX009 (sc), vehicle: DMSO
  survivor count: 8 of 8
dose: 32.0 mg/kg/injection, schedule: Q03HX008 (ip), vehicle: DMSO
  survivor count: 0 of 8
dose: 32.0 mg/kg/injection, schedule: Q03HX016 (ip), vehicle: DMSO
  survivor count: 0 of 8
dose: 32.0 mg/kg/injection, schedule: Q04DX003 (ip), vehicle: DMSO
  survivor count: 8 of 8
dose: 32.0 mg/kg/injection, schedule: Q04DX003 (ip), vehicle: clinical formulation
  survivor count: 4 of 4
dose: 32.0 mg/kg/injection, schedule: Q04DX003 (ip), vehicle: saline
  survivor count: 4 of 4
dose: 32.0 mg/kg/injection, schedule: Q08DX002 (ip), vehicle: DMSO
  survivor count: 7 of 7
dose: 64.0 mg/kg/injection, schedule: Q01DX001 (ip), vehicle: DMSO
  survivor count: 8 of 8
dose: 64.0 mg/kg/injection, schedule: Q01DX001 (oral), vehicle: DMSO
  survivor count: 8 of 8
dose: 64.0 mg/kg/injection, schedule: Q01DX001 (sc), vehicle: DMSO
  survivor count: 8 of 8
dose: 64.0 mg/kg/injection, schedule: Q01DX009 (ip), vehicle: DMSO
  survivor count: 8 of 8
dose: 64.0 mg/kg/injection, schedule: Q01DX009 (oral), vehicle: DMSO
  survivor count: 8 of 8
dose: 64.0 mg/kg/injection, schedule: Q01DX009 (sc), vehicle: DMSO
  survivor count: 8 of 8
dose: 64.0 mg/kg/injection, schedule: Q03HX008 (ip), vehicle: DMSO
  survivor count: 0 of 8
dose: 64.0 mg/kg/injection, schedule: Q04DX003 (ip), vehicle: DMSO
  survivor count: 8 of 8
dose: 64.0 mg/kg/injection, schedule: Q04DX003 (ip), vehicle: clinical formulation
  survivor count: 4 of 4
dose: 64.0 mg/kg/injection, schedule: Q04DX003 (ip), vehicle: saline
  survivor count: 3 of 4
dose: 64.0 mg/kg/injection, schedule: Q08DX002 (ip), vehicle: DMSO
  survivor count: 8 of 8
dose: 128.0 mg/kg/injection, schedule: Q01DX001 (ip), vehicle: DMSO
  survivor count: 7 of 8
dose: 128.0 mg/kg/injection, schedule: Q01DX001 (oral), vehicle: DMSO
  survivor count: 8 of 8
dose: 128.0 mg/kg/injection, schedule: Q01DX001 (sc), vehicle: DMSO
  survivor count: 6 of 8
dose: 128.0 mg/kg/injection, schedule: Q01DX009 (oral), vehicle: DMSO
  survivor count: 1 of 8
dose: 128.0 mg/kg/injection, schedule: Q04DX003 (ip), vehicle: DMSO
  survivor count: 6 of 8
dose: 128.0 mg/kg/injection, schedule: Q04DX003 (ip), vehicle: clinical formulation
  survivor count: 4 of 4
dose: 128.0 mg/kg/injection, schedule: Q04DX003 (ip), vehicle: saline
  survivor count: 1 of 4
dose: 128.0 mg/kg/injection, schedule: Q08DX002 (ip), vehicle: DMSO
  survivor count: 6 of 8
dose: 256.0 mg/kg/injection, schedule: Q01DX001 (ip), vehicle: DMSO
  survivor count: 0 of 8
dose: 256.0 mg/kg/injection, schedule: Q01DX001 (oral), vehicle: DMSO
  survivor count: 2 of 8
dose: 256.0 mg/kg/injection, schedule: Q01DX001 (sc), vehicle: DMSO
  survivor count: 0 of 8
dose: 256.0 mg/kg/injection, schedule: Q01DX009 (oral), vehicle: DMSO
  survivor count: 0 of 8
dose: 256.0 mg/kg/injection, schedule: Q08DX002 (ip), vehicle: DMSO
  survivor count: 0 of 8
dose: 512.0 mg/kg/injection, schedule: Q01DX001 (ip), vehicle: DMSO
  survivor count: 0 of 8
dose: 512.0 mg/kg/injection, schedule: Q01DX001 (oral), vehicle: DMSO
  survivor count: 1 of 8
dose: 512.0 mg/kg/injection, schedule: Q01DX001 (sc), vehicle: DMSO
  survivor count: 0 of 8
dose: 1024.0 mg/kg/injection, schedule: Q01DX001 (oral), vehicle: DMSO
  survivor count: 0 of 8

## Nc1nc(N)c(N=Nc2cccc3ccccc23)c(N)n1
dose: 1.0 mg/kg/injection, schedule: Q01DX001 (ip), vehicle: water
  survivor count: 2 of 2
dose: 10.0 mg/kg/injection, schedule: Q01DX001 (ip), vehicle: water
  survivor count: 2 of 2
dose: 100.0 mg/kg/injection, schedule: Q01DX001 (ip), vehicle: water
  survivor count: 2 of 2

## CC(=O)Nc1nc(Br)c2ccccc2c1-c1ccc(N(CCO)CCO)cc1
dose: 1.0 mg/kg/injection, schedule: Q01DX001 (ip), vehicle: other
  survivor count: 2 of 2
dose: 10.0 mg/kg/injection, schedule: Q01DX001 (ip), vehicle: other
  survivor count: 2 of 2
dose: 100.0 mg/kg/injection, schedule: Q01DX001 (ip), vehicle: other
  survivor count: 2 of 2
